# Some of the results follow.
# By UniProt entry, the sequences of proteins in these tests, tags left out. Where a name states a change or a piece, a line headed by the entry shows the natural chain unless it says otherwise.
# UniProt O43310: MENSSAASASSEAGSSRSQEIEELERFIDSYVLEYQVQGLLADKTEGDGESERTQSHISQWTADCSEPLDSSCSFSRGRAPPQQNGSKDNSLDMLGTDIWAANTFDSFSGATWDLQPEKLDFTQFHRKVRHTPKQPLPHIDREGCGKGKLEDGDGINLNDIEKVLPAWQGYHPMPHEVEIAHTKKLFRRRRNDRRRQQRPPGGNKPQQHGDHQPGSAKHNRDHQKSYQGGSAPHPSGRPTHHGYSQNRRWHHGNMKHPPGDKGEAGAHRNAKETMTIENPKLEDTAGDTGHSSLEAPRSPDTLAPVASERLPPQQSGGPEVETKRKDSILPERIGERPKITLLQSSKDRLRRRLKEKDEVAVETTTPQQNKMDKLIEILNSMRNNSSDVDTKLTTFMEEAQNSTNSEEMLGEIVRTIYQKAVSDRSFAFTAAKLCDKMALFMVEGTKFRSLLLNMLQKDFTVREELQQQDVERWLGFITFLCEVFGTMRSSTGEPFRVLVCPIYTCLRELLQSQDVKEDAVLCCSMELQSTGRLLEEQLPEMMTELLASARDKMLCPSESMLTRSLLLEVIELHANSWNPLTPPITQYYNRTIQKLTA
# UniProt Q8WUE5: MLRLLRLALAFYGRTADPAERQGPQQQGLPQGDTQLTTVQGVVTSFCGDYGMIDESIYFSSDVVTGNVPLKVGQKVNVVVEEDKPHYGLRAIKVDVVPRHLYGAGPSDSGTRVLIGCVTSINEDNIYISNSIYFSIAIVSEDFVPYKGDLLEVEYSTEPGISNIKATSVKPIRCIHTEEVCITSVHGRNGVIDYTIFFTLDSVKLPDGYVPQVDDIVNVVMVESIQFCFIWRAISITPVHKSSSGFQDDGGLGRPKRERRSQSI
# UniProt Q13618, whole entry, looked up: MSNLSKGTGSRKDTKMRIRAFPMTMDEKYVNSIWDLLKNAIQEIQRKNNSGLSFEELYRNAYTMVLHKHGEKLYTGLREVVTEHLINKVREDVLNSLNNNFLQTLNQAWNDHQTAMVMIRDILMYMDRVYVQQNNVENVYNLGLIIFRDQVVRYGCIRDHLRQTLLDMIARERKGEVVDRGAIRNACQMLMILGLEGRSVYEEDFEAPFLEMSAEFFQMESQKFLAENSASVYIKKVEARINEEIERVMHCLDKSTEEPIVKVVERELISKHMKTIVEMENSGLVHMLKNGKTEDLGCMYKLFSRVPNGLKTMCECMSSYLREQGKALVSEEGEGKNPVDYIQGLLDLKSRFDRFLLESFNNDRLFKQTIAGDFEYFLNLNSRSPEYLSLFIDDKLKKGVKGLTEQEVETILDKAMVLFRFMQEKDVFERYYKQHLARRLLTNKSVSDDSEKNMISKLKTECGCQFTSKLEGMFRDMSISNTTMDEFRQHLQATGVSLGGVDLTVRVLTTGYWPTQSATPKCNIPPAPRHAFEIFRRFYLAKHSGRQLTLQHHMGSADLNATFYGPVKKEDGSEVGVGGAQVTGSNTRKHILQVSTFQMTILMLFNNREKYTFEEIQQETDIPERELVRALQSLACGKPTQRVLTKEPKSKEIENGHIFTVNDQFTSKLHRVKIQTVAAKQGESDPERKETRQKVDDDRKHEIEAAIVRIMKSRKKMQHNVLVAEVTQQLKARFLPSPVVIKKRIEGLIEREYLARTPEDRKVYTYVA
# UniProt Q13617, whole entry, looked up: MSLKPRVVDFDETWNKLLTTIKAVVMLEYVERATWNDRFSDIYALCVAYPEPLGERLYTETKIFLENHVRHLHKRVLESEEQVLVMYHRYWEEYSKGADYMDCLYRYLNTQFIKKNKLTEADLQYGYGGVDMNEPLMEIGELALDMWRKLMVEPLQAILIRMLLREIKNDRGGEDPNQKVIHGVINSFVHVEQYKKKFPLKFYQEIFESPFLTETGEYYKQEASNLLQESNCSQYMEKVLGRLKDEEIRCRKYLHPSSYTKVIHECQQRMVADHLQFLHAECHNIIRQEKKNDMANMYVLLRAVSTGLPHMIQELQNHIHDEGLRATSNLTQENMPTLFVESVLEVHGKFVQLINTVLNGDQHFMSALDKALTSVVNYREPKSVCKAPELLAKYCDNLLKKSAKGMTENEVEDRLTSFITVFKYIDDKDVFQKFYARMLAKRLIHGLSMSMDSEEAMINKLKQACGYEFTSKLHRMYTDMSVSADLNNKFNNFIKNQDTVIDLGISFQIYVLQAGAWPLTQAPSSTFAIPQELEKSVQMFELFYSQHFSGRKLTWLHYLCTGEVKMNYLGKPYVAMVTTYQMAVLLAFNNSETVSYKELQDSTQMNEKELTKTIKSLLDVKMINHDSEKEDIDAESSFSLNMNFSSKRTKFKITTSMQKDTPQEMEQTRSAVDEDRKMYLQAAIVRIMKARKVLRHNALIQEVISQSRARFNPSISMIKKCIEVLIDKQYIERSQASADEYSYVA
# UniProt Q9P0U4, whole entry, looked up: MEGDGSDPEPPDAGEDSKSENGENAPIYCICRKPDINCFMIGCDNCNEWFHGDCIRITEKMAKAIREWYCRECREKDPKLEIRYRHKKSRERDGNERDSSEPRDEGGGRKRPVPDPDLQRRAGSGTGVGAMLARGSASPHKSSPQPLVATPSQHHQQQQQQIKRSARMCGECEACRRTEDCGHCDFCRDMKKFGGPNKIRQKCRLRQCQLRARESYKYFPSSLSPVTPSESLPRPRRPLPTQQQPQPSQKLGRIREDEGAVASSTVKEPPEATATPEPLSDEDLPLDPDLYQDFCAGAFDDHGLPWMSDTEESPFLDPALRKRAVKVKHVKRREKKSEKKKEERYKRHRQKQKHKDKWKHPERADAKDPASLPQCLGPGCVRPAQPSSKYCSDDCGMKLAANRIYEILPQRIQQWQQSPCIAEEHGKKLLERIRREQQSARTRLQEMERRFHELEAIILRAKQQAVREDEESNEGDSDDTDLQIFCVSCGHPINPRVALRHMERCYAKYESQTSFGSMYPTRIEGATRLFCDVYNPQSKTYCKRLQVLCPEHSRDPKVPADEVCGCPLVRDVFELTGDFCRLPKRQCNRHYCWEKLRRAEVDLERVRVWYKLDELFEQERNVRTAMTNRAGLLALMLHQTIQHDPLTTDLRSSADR
# UniProt P55060: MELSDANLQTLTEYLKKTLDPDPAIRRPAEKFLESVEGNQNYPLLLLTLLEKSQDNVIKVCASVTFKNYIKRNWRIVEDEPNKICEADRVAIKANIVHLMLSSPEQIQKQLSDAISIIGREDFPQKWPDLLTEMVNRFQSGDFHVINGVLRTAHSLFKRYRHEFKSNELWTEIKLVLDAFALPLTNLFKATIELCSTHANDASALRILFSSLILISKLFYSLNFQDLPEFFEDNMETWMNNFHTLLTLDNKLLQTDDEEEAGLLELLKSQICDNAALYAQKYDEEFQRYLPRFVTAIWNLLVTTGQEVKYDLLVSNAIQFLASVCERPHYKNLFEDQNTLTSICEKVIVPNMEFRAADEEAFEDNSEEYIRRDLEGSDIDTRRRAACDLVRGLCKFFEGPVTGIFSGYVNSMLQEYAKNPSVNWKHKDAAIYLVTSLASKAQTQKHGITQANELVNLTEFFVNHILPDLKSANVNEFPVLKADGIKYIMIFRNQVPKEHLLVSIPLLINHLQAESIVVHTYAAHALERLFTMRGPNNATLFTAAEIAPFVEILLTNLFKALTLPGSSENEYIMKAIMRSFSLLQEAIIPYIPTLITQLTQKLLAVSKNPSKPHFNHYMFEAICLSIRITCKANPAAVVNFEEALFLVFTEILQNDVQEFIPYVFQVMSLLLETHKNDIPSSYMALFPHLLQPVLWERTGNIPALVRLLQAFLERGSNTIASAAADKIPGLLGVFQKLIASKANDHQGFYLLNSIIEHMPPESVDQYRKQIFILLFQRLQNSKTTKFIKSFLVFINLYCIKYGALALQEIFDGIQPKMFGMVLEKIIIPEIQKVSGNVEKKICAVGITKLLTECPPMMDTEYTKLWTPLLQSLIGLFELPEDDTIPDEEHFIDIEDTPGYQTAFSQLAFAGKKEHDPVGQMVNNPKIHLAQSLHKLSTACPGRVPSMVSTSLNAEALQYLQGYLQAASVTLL
# UniProt Q12996: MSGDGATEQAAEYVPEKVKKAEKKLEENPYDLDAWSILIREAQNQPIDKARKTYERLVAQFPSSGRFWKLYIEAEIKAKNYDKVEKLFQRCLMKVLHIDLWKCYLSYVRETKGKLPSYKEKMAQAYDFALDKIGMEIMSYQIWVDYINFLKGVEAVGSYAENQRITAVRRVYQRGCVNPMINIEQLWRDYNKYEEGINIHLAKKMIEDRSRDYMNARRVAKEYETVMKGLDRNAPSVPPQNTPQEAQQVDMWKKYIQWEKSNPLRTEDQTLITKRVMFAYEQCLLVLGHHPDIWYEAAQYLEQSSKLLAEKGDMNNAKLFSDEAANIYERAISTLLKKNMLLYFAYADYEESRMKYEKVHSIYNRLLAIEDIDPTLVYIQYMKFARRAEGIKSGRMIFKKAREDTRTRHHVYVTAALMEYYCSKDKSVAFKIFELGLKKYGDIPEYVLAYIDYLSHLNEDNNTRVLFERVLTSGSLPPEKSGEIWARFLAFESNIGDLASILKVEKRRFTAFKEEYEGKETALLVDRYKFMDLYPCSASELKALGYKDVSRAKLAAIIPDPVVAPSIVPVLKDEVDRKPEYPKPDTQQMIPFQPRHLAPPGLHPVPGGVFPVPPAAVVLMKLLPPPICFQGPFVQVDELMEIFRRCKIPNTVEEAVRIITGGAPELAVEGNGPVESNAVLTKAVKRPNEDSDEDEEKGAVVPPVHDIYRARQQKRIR
# UniProt P35222, whole entry, looked up: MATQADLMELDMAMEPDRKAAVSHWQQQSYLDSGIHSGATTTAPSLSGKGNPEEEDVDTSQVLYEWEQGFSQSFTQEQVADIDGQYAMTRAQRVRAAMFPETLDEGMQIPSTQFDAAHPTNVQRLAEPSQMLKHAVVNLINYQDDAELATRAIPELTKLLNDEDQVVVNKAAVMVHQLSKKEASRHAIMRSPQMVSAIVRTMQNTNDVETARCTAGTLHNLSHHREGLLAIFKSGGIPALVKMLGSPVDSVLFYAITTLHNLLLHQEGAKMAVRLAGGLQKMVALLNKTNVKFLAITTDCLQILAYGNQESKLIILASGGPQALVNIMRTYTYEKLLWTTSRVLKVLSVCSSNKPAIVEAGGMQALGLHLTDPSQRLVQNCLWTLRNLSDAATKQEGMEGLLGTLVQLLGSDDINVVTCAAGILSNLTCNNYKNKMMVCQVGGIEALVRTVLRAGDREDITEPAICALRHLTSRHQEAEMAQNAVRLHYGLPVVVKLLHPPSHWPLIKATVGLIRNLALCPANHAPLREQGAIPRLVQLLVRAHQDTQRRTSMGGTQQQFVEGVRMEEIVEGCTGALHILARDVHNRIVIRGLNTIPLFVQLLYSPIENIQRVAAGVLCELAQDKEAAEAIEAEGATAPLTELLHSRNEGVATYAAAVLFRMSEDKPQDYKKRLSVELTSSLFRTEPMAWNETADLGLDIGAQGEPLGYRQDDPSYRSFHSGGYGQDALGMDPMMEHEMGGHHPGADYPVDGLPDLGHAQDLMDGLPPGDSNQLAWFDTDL
# UniProt P32929, whole entry, looked up: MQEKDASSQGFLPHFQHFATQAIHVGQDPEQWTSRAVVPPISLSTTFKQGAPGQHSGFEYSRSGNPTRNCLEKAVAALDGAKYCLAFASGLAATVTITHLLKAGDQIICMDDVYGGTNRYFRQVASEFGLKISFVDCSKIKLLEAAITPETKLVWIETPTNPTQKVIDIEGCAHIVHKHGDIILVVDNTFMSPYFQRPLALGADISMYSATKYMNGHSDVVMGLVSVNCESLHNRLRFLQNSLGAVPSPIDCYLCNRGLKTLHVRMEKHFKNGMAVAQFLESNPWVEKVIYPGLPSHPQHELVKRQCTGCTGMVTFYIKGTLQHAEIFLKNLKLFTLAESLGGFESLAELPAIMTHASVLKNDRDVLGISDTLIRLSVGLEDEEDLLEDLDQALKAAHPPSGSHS
# UniProt P02511: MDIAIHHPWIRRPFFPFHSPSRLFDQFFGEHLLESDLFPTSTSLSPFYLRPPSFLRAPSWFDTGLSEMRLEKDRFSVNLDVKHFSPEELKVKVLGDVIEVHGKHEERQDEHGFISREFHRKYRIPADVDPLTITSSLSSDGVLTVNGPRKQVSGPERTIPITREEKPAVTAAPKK
# UniProt Q8TB03: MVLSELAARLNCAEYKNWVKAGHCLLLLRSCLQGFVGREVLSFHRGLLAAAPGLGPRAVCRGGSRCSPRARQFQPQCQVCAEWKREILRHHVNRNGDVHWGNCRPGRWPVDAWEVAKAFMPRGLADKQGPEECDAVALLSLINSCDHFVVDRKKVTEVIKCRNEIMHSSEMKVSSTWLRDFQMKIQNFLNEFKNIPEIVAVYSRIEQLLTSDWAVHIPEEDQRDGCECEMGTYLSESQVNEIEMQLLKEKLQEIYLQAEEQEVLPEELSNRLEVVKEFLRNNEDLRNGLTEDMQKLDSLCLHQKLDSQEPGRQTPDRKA
# Assays:
# Assay in all cases: log2 fold change, soluble protein after heating vs DMSO (PISA); higher = thermal stabilisation; K562 lysate, 10 uM; active = over 0.2 and 3.5 SD of the protein, either way, in both replicates (recomputed)
# lapatinib = compound: CS(=O)(=O)CCNCc1ccc(-c2ccc3ncnc(Nc4ccc(OCc5cccc(F)c5)c(Cl)c4)c3c2)o1 [lapatinib]
# Summary of the method: (§1)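 Thermal stability, expressed as log-two fold change relative to solvent controls, is given from duplicates. Crude K562 extract in PBS pH 7.4 with 1 mM MgCl2, at 1 mg/mL protein, was treated with 10 μM compound for 30 min and heated in aliquots for 3 min across 48°C-58°C. After pooling, adjustment to 0.5% NP-40 at 4°C and centrifugation at 21,000xg for 90 min, supernatant protein was measured by TMTpro 16plex LC-MS/MS with channel sums equalised.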
# pictilisib = compound: CS(=O)(=O)N1CCN(Cc2cc3nc(-c4cccc5[nH]ncc45)nc(N4CCOCC4)c3s2)CC1 [pictilisib]
# Summary of the method: as §1
# crizotinib = compound: C[C@@H](Oc1cc(-c2cnn(C3CCNCC3)c2)cnc1N)c1c(Cl)ccc(F)c1Cl [crizotinib]
# Summary of the method: as §1
# [1] = compound: C[C@H](C1=CC=C(C=C1)C(=O)NC2=C3C=CNC3=NC=C2)N
# Summary of the method: as §1
# duvelisib = compound: C[C@H](Nc1ncnc2nc[nH]c12)c1cc2cccc(Cl)c2c(=O)n1-c1ccccc1 [duvelisib]
# Summary of the method: as §1
# gandotinib = compound: Cc1cc(Nc2cc(CN3CCOCC3)c3nc(C)c(Cc4ccc(Cl)cc4F)n3n2)n[nH]1 [gandotinib]
# Summary of the method: as §1
# tozasertib = compound: Cc1cc(Nc2cc(N3CCN(C)CC3)nc(Sc3ccc(NC(=O)C4CC4)cc3)n2)n[nH]1 [tozasertib]
# Summary of the method: as §1
# doramapimod = compound: Cc1ccc(-n2nc(C(C)(C)C)cc2NC(=O)Nc2ccc(OCCN3CCOCC3)c3ccccc23)cc1 [doramapimod]
# Summary of the method: as §1
# bafetinib = compound: Cc1ccc(NC(=O)c2ccc(CN3CC[C@H](N(C)C)C3)c(C(F)(F)F)c2)cc1Nc1nccc(-c2cncnc2)n1 [bafetinib]
# Summary of the method: as §1
# [2] = compound: Cc1cccc(CC(=O)N2CCc3c2ccc(-c2cn(C)c4ncnc(N)c24)c3F)n1
# Summary of the method: as §1
# nilotinib = compound: Cc1cn(-c2cc(NC(=O)c3ccc(C)c(Nc4nccc(-c5cccnc5)n4)c3)cc(C(F)(F)F)c2)cn1 [nilotinib]
# Summary of the method: as §1
# [3] = compound: Cc1nc(Nc2n[nH]c3c2CN(C(=O)N[C@H](CN(C)C)c2ccccc2)C3(C)C)c2sccc2n1
# Summary of the method: as §1
# dasatinib = compound: Cc1nc(Nc2ncc(C(=O)Nc3c(C)cccc3Cl)s2)cc(N2CCN(CCO)CC2)n1 [dasatinib]
# Summary of the method: as §1
# [4] = compound: Cc1ncc(-c2ccnc(Nc3ccc(S(C)(=O)=O)cc3)n2)n1C(C)C
# Summary of the method: as §1
# [5] = compound: Cn1cc(-c2ccc3c(c2)CCN3C(=O)Cc2cccc(C(F)(F)F)c2)c2c(N)ncnc21
# Summary of the method: as §1
# quisinostat = compound: Cn1cc(CNCC2CCN(c3ncc(C(=O)NO)cn3)CC2)c2ccccc21 [quisinostat]
# Summary of the method: as §1
# tipifarnib = compound: Cn1cncc1[C@@](N)(c1ccc(Cl)cc1)c1ccc2c(c1)c(-c1cccc(Cl)c1)cc(=O)n2C [tipifarnib]
# Summary of the method: as §1
# [6] = compound: NC(=O)Nc1cc(-c2cccc(F)c2)sc1C(=O)N[C@H]1CCCNC1
# Summary of the method: as §1
# [7] = compound: NC(=O)c1cnc(N[C@@H]2CCCC[C@@H]2N)nc1Nc1cccc(-n2nccn2)c1
# Summary of the method: as §1
# [8] = compound: NC1(c2ccc(-c3nc4ccn5c(=O)[nH]nc5c4cc3-c3ccccc3)cc2)CCC1
# Summary of the method: as §1
Target,log2 fold change (lapatinib),log2 fold change (pictilisib),log2 fold change (crizotinib),log2 fold change [1],log2 fold change (duvelisib),log2 fold change (gandotinib),log2 fold change (tozasertib),log2 fold change (doramapimod),log2 fold change (bafetinib),log2 fold change [2],log2 fold change (nilotinib),log2 fold change [3],log2 fold change (dasatinib),log2 fold change [4],log2 fold change [5],log2 fold change (quisinostat),log2 fold change (tipifarnib),log2 fold change [6],log2 fold change [7],log2 fold change [8]
CSNK1D (UniProt P48730),inactive: -0.098,inactive: 0.066,inactive: 0.052,inactive: -0.153,inactive: 0.007,inactive: 0.059,inactive: 0.008,inactive: -0.011,inactive: -0.01,inactive: -0.177,inactive: 0.199,inactive: -0.384,inactive: 0.028,active: -0.551,inactive: -0.059,inactive: -0.049,inactive: -0.139,inactive: 0.021,inactive: 0.072,
CTIF isoform 2 (UniProt O43310),inactive: 0.074,inactive: 0,inactive: 0.045,inactive: -0.129,inactive: -0.014,inactive: 0.068,inactive: 0.133,inactive: -0.024,inactive: -0.059,inactive: 0.117,inactive: 0.057,inactive: -0.072,inactive: 0.043,inactive: 0.023,inactive: -0.031,inactive: -0.023,inactive: -0.016,inactive: 0.022,inactive: 0.015,inactive: -0.023
CT55 (UniProt Q8WUE5),inactive: 0.09,inactive: 0.019,inactive: -0.159,inactive: -0.145,inactive: 0.111,inactive: 0.023,inactive: 0.025,inactive: 0.164,inactive: -0.132,inactive: 0.111,inactive: -0.091,inactive: 0.025,inactive: -0.142,inactive: 0,inactive: -0.125,inactive: -0.071,inactive: -0.087,inactive: 0.081,inactive: 0.119,inactive: 0.057
CUL3 (UniProt Q13618),inactive: -0.02,inactive: -0.02,inactive: 0.006,inactive: -0.005,inactive: 0.012,inactive: -0.04,inactive: 0.027,inactive: -0.012,inactive: -0.004,inactive: 0.039,inactive: -0.014,inactive: 0.011,inactive: 0.009,inactive: -0.01,inactive: 0.005,inactive: 0.007,inactive: 0.036,inactive: -0.015,inactive: 0.011,inactive: 0.005
CUSTOS (UniProt Q96C57),inactive: -0.003,inactive: 0.01,inactive: -0.015,inactive: 0.006,inactive: -0.01,inactive: 0.097,inactive: -0.015,inactive: 0.031,inactive: -0.024,inactive: 0.002,inactive: 0.061,inactive: -0.005,inactive: 0.025,inactive: -0.034,inactive: -0.007,inactive: -0.039,inactive: -0.021,inactive: 0.027,inactive: 0.002,inactive: 0.033
CUL2 isoform 2 (UniProt Q13617),inactive: -0.018,inactive: -0.027,inactive: 0.008,inactive: 0.008,inactive: 0.002,inactive: -0.055,inactive: -0.014,inactive: -0.007,inactive: 0.013,inactive: -0.023,inactive: 0.016,inactive: 0.011,inactive: -0.009,inactive: 0,inactive: 0.015,inactive: 0.018,inactive: 0.012,inactive: -0.003,inactive: -0.013,inactive: 0.016
CXXC1 isoform 2 (UniProt Q9P0U4),inactive: -0.024,inactive: 0.107,inactive: -0.089,inactive: 0.058,inactive: 0.154,inactive: -0.046,inactive: -0.028,inactive: 0.018,inactive: -0.047,inactive: 0.005,inactive: 0.032,inactive: 0.029,inactive: -0.504,inactive: 0.026,inactive: -0.191,inactive: -0.159,inactive: -0.039,inactive: -0.013,inactive: -0.021,inactive: 0.082
CTTN (UniProt Q14247),inactive: 0.025,inactive: -0.013,inactive: 0.019,inactive: -0.001,inactive: -0.026,inactive: 0.085,inactive: 0.014,inactive: 0.013,inactive: 0.024,inactive: -0.037,inactive: -0.002,inactive: 0.011,inactive: 0.052,inactive: -0.026,inactive: 0.036,inactive: 0.017,inactive: 0.033,inactive: -0.023,inactive: 0.001,inactive: -0.044
CSE1L (UniProt P55060),inactive: -0.04,inactive: -0.006,inactive: -0.014,inactive: -0.038,inactive: -0.005,inactive: -0.073,inactive: -0.018,inactive: 0.009,inactive: -0.022,inactive: 0.005,inactive: -0.005,inactive: -0.008,inactive: -0.051,inactive: 0.012,inactive: 0.003,inactive: 0.04,inactive: -0.012,inactive: 0.019,inactive: 0.014,inactive: 0.013
CSTF3 (UniProt Q12996),inactive: 0.002,inactive: -0.037,inactive: -0.032,inactive: 0.022,inactive: -0.018,inactive: -0.086,inactive: 0.025,inactive: 0.028,inactive: -0.044,inactive: -0.028,inactive: -0.026,inactive: -0.014,inactive: -0.03,inactive: -0.027,inactive: 0.031,inactive: -0.021,inactive: -0.006,inactive: -0.002,inactive: 0.001,inactive: 0.021
CTNNB1 (UniProt P35222),inactive: -0.034,inactive: 0.006,inactive: 0.012,inactive: -0.008,inactive: 0.054,inactive: 0.013,inactive: 0.012,inactive: -0.102,inactive: -0.018,inactive: -0.043,inactive: -0.056,inactive: 0.011,inactive: 0.053,inactive: -0.08,inactive: 0.022,inactive: 0.016,inactive: 0.044,inactive: -0.037,inactive: -0.048,inactive: 0.043
CTH (UniProt P32929),inactive: 0.014,inactive: 0.013,inactive: -0.002,inactive: -0.05,inactive: 0.017,inactive: 0.054,inactive: 0.001,inactive: 0.025,inactive: 0.068,inactive: 0.002,inactive: -0.022,inactive: 0.039,inactive: 0.043,inactive: 0.005,inactive: -0.032,inactive: -0.027,inactive: -0.048,inactive: -0.004,inactive: -0.019,inactive: -0.01
CRYAB (UniProt P02511),inactive: -0.078,inactive: -0.037,inactive: -0.159,inactive: -0.006,inactive: 0.011,inactive: 0.192,inactive: -0.075,inactive: 0,inactive: 0.129,inactive: 0.082,inactive: 0.096,inactive: 0.007,inactive: 0.062,inactive: -0.023,inactive: -0.045,inactive: -0.331,inactive: 0.162,inactive: 0.079,inactive: -0.113,inactive: -0.232
CXorf38 (UniProt Q8TB03),inactive: -0.05,inactive: -0.017,inactive: -0.019,inactive: -0.039,inactive: 0.013,inactive: 0.037,inactive: 0.037,inactive: 0.013,inactive: -0.018,inactive: -0.033,inactive: 0.029,inactive: 0.013,inactive: -0.04,inactive: 0.053,inactive: -0.034,inactive: 0.004,inactive: 0.002,inactive: 0.006,inactive: 0.049,inactive: 0.009
CTU1 (UniProt Q7Z7A3),inactive: 0.011,inactive: 0.013,inactive: -0.037,inactive: -0.003,inactive: -0.011,inactive: -0.003,inactive: 0.02,inactive: 0.015,inactive: 0.042,inactive: 0.013,inactive: -0.019,inactive: 0.009,inactive: -0.04,inactive: 0.027,inactive: -0.004,inactive: -0.098,inactive: 0.016,inactive: 0.019,inactive: -0.012,inactive: 0.006

# Laid out differently: entries from further up
Target	log2 fold change (lapatinib)	log2 fold change (pictilisib)	log2 fold change (crizotinib)	log2 fold change [1]	log2 fold change (duvelisib)	log2 fold change (gandotinib)	log2 fold change (tozasertib)	log2 fold change (doramapimod)	log2 fold change (bafetinib)	log2 fold change [2]	log2 fold change (nilotinib)	log2 fold change [3]	log2 fold change (dasatinib)	log2 fold change [4]	log2 fold change [5]	log2 fold change (quisinostat)	log2 fold change (tipifarnib)	log2 fold change [6]	log2 fold change [7]	log2 fold change [8]
CTIF isoform 2 (UniProt O43310)	inactive: 0.074	inactive: 0	inactive: 0.045	inactive: -0.129	inactive: -0.014	inactive: 0.068	inactive: 0.133	inactive: -0.024	inactive: -0.059	inactive: 0.117	inactive: 0.057	inactive: -0.072	inactive: 0.043	inactive: 0.023	inactive: -0.031	inactive: -0.023	inactive: -0.016	inactive: 0.022	inactive: 0.015	inactive: -0.023
CTTN (UniProt Q14247)	inactive: 0.025	inactive: -0.013	inactive: 0.019	inactive: -0.001	inactive: -0.026	inactive: 0.085	inactive: 0.014	inactive: 0.013	inactive: 0.024	inactive: -0.037	inactive: -0.002	inactive: 0.011	inactive: 0.052	inactive: -0.026	inactive: 0.036	inactive: 0.017	inactive: 0.033	inactive: -0.023	inactive: 0.001	inactive: -0.044
